{
  "source": "PubChem BioAssay AID540276",
  "about": "(National Center for Advancing Translational Sciences (NCATS), 2011)",
  "note": "About 5,400 (1.8%) of roughly 300,000 compounds were called active. Inconclusive results, whose numbers are uncertain, are shown with a selection of clear calls. Calls follow the shape of the full dose curve; tested in HEK293 cells. A potency beside an inconclusive call is a rough fit, not a confirmed value. % is scaled to controls: 0 for no effect and ±100 for the full control effect; potency is read from the fitted curve at half-maximal effect.",
  "data": [
    {"experiment": "qHTS for inhibitors of binding or entry into cells for Marburg Virus", "settings": "Marburg virus pseudotyped entry inhibition, cell reporter; activity change, negative = inhibition: at 37.8 µM (top of the series) unless noted", "values": [
      {"smiles": "CNC(=O)CSc1nnc(-c2ccco2)n1-c1ccc(C)cc1", "Potency": "inconclusive: 29.1 µM [activator, single point]"},
      {"smiles": "CC(=O)Nc1ccc(S(=O)(=O)NCCSCc2ccccc2Cl)cc1", "Potency": "inconclusive: 3.98 µM [inhibitor, full curve, poor fit]"},
      {"smiles": "COc1ccc(S(=O)(=O)Nc2cc(-c3cn4cccc(C)c4n3)ccc2C)cc1C", "Potency": "inconclusive: 2.82 µM [inhibitor, partial curve, poor fit]"},
      {"smiles": "O=C(NNC1=NCCC1)c1ccc(Br)cc1", "Potency": "inconclusive: 35.5 µM [activator, single point]"},
      {"smiles": "Cc1ccc(CSc2nnc(CNc3ccc(F)cc3)o2)cc1", "activity change, negative = inhibition": "inactive: -1.38% [at 46.1 µM]"},
      {"smiles": "COCCNC(=O)CN(c1cc(Cl)ccc1OC)S(=O)(=O)c1ccc(C)c([N+](=O)[O-])c1", "Potency": "inconclusive: 6.31 µM [inhibitor, single point]"},
      {"smiles": "COc1ccc(C2(C(=O)NCCN3CCOCC3)CCOCC2)cc1", "Potency": "inconclusive: 5.17 µM [activator, partial curve, poor fit]"},
      {"smiles": "Cc1ccc(C(C)C)c(OCC(=O)Nc2nc3c(s2)CCCC3)c1", "Potency": "inconclusive: 1.26 µM [inhibitor, full curve, poor fit]"},
      {"smiles": "CC(=O)Nc1ccc(NC(=O)Cn2c(=O)n(-c3ccccc3)c(=O)c3oc4ccccc4c32)cc1", "Potency": "inconclusive: 20 µM [inhibitor, partial curve, poor fit]"},
      {"smiles": "COc1ccc2oc(C(=O)NCc3cc(OC)c(OC)cc3OC)c(C)c2c1", "Potency": "inconclusive: 35.5 µM [inhibitor, single point]"},
      {"smiles": "CCc1c(O)cc(=O)n(-c2ccccc2)c1-c1ccccc1", "activity change, negative = inhibition": "inactive: -9.77%"},
      {"smiles": "CC(C)(C)c1ccc(OCCC(=O)OCC(=O)Nc2ccc(N3CCOCC3)cc2)cc1", "Potency": "inconclusive: 5.62 µM [inhibitor, single point]"},
      {"smiles": "Cc1ccc(-c2nnn(CC(=O)N(CC(=O)NCCC(C)C)c3ccc(F)cc3)n2)cc1", "activity change, negative = inhibition": "inactive: 10.5% [at 46.1 µM]"},
      {"smiles": "COc1ccc(-c2cc(C(=O)N3CCN(c4ccccc4)CC3)c3ccccc3n2)cc1", "Potency": "inconclusive: 10 µM [inhibitor, partial curve, poor fit]"},
      {"smiles": "CN1CC(=O)N(CC(=O)Nc2ccc(N(C)C)cc2)c2ccccc2C1=O", "activity change, negative = inhibition": "inactive: 1.1%"},
      {"smiles": "O=C1CCC(CCC(=O)N2CCCC(C(=O)c3cccc(C(F)(F)F)c3)C2)=NN1", "note": "(stereo unspecified)", "activity change, negative = inhibition": "inactive: -9.14% [at 46.1 µM]"},
      {"smiles": "COC(=O)c1ccc(COc2ccc(/C=N/O)cc2OC)o1", "Potency": "inconclusive: 6.31 µM [activator, full curve]"},
      {"smiles": "CCOC(=O)C1(Cc2ccccc2C(F)(F)F)CCN(Cc2ccc(COC)o2)CC1", "Potency": "inconclusive: 17.8 µM [inhibitor, partial curve, poor fit]"},
      {"smiles": "CCN(CCNCC(O)COc1ccccc1C(C)C)c1cccc(C)c1", "note": "(stereo unspecified)", "Potency": "inconclusive: 25.1 µM [inhibitor, single point]"},
      {"smiles": "O=C(NC(=S)NC1CCCC1)c1ccccc1Br", "activity change, negative = inhibition": "inactive: 1.69%"},
      {"smiles": "COc1cc(C)ccc1OCCOCCN(C)Cc1ccccc1", "Potency": "inconclusive: 2.51 µM [activator, partial curve, poor fit]"},
      {"smiles": "O=C(Nc1ccc2c(c1)OCO2)N1CCN(c2ccc(F)cc2)CC1", "Potency": "inconclusive: 0.562 µM [activator, full curve, poor fit]"},
      {"smiles": "C=CCNC(=O)C1CC(=O)N(c2ccc(OCC(=O)NCc3ccccc3)cc2)C1", "note": "(stereo unspecified)", "Potency": "inconclusive: 28.2 µM [inhibitor, single point]"},
      {"smiles": "CCc1ccc2oc(C(=O)NCCc3ccc(OC)c(OC)c3)cc(=O)c2c1", "activity change, negative = inhibition": "inactive: -24.3% [at 46.1 µM]"},
      {"smiles": "O=C(Nc1cccc(C(F)(F)F)c1)c1ccc(N2CCNCC2)c([N+](=O)[O-])c1", "Potency": "inconclusive: 14.1 µM [inhibitor, partial curve, poor fit]"},
      {"smiles": "COc1ccc(CNc2nc(C)c([N+](=O)[O-])c(C)c2C#N)cc1", "activity change, negative = inhibition": "inactive: -6.58%"},
      {"smiles": "O=C(NC1CC1)c1cc(=S)[nH]c2ccccc12", "Potency": "inconclusive: 6.31 µM [inhibitor, single point]"},
      {"smiles": "COc1ccc(OCc2cc(C(=O)NC3CCc4ccccc43)no2)c(Cl)c1", "note": "(stereo unspecified)", "activity change, negative = inhibition": "inactive: -6.73%"},
      {"smiles": "Cc1ccc(CCNC(=O)c2cc3sccc3n2Cc2ccc(Cl)cc2)cc1", "activity change, negative = inhibition": "inactive: -7.19% [at 46.1 µM]"},
      {"smiles": "CCOc1cc2c(C#N)c(N3CCOCC3)nc(N)c2c(N)n1", "Potency": "inactive"},
      {"smiles": "Cc1nc2ccc(Br)cc2c2c1CC(CBr)O2", "note": "(stereo unspecified)", "Potency": "inconclusive: 14.1 µM [inhibitor, single point]"},
      {"smiles": "C/C(CC(C)(C)c1ccccc1)=N\\NS(=O)(=O)c1ccccc1", "activity change, negative = inhibition": "inactive: -3.65% [at 14.2 µM]"},
      {"smiles": "O=C(Cn1nc(Cl)nc1Cl)c1ccccc1", "activity change, negative = inhibition": "inactive: 22% [at 46.1 µM]"},
      {"smiles": "CCCn1c(SCc2cc(=O)oc3ccc4ccccc4c23)n[nH]c1=O", "Potency": "inconclusive: 0.651 µM [inhibitor, full curve, poor fit]"},
      {"smiles": "CC(C1=C(CCN(C)C)Cc2ccccc21)c1ccccn1", "note": "(stereo unspecified)", "Potency": "inconclusive: 12.6 µM [inhibitor, single point]"},
      {"smiles": "Fc1ccc(N2CCN(Cc3cnc(Cl)s3)CC2)cc1", "Potency": "inconclusive: 5.62 µM [activator, single point]"},
      {"smiles": "CCOC(=O)C1=C(CN2CCN(c3cc(C)ccc3C)CC2)NC(=O)NC1c1ccccc1", "note": "(stereo unspecified)", "Potency": "inconclusive: 35.5 µM [inhibitor, single point]"},
      {"smiles": "O=C(Nc1ccc(-c2nc3ccccc3s2)cc1)C1=COCCO1", "Potency": "active: 0.794 µM"},
      {"smiles": "CS(=O)(=O)c1ccc2nc(NC(=O)c3ccco3)sc2c1", "activity change, negative = inhibition": "inactive: -39.7%"},
      {"smiles": "COc1cc(OC)cc(C(=O)Nc2nnc(SCC(=O)NCc3ccco3)s2)c1", "activity change, negative = inhibition": "inactive: 4.34% [at 46.1 µM]"},
      {"smiles": "CCC(=O)NC(=Nc1nc2ccccc2s1)NC(=O)CC", "Potency": "inconclusive: 35.5 µM [inhibitor, single point]"},
      {"smiles": "COc1ccccc1Oc1nc2c(C)cccn2c(=O)c1/C=C(\\C#N)c1nc2ccccc2[nH]1", "activity change, negative = inhibition": "inactive: 14.1% [at 46.1 µM]"},
      {"smiles": "N=c1sccn1CC(=O)Nc1ccccc1Cc1ccccc1", "Potency": "inconclusive: 29.1 µM [inhibitor, single point]"},
      {"smiles": "Cn1cccc1/C=C1\\C(=O)NC(=O)N(Cc2ccccc2Cl)C1=O", "Potency": "inconclusive: 2.24 µM [inhibitor, partial curve, poor fit]"},
      {"smiles": "Clc1ccc(CN2CCCCCC2)cc1", "activity change, negative = inhibition": "inactive: -0.179%"},
      {"smiles": "O=c1[nH]c(=S)[nH]c(-c2ccccc2)c1Cc1c(O)ccc2ccccc12", "Potency": "inactive"}
    ]}
  ]
}
